## Screening data, single-dose tests

The chains behind the UniProt entries cited, without tags or fusion partners. Residues count along the entry.
UniProt A4I591, 1-473: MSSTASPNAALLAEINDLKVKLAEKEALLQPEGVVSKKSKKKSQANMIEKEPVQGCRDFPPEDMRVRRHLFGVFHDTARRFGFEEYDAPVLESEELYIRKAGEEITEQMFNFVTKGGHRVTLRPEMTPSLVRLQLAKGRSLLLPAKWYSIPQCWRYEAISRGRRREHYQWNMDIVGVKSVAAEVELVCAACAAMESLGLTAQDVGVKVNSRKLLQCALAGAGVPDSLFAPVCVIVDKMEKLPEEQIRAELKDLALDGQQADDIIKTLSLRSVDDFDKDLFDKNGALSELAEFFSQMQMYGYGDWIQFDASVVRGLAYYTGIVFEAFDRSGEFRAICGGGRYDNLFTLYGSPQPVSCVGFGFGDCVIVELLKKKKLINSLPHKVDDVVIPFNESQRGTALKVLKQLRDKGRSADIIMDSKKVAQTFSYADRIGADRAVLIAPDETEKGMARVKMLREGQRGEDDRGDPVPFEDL

The values are deposited in ChEMBL (CHEMBL3988442, “University of Dundee, Small-Polar-MMV Screening Library” (2021)).

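Histidine-tRNA ligase, Leishmania infantum (UniProt A4I591). Enzyme assay of histidyl-tRNA synthetase; the read-out is not stated. Compounds at 30 µM. Direction is inferred from retests: higher values go with stronger inhibition. The assay is labelled LdHisRS but filed under L. infantum. About 69,000 compounds were tested under these conditions; 0.6% (about 410) showed 50% or more at least once.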

Each number is a percent effect as filed. The record does not define 0% and 100%; most values in the screen are far below 50% and negative numbers occur (in some assays of this library far below -100). This is an unselected part of the compounds tested.

| Compound | percent effect |
|---|---|
| `CC(C)N1CCCC(C(=O)N(C)CCCc2cnn(C)c2)C1` (stereo unspecified) | 4.444% |
| `Fc1ccc(-n2cccn2)c(CN2CCCCC2CCn2ccnc2)c1` (stereo unspecified) | 19.18% |
| `Cc1oncc1C(=O)N1CCc2ncnc(-c3cnn(C)c3)c2CC1` | 9.722% |
| `COc1ccc(CN2C[C@@H]3COC[C@H](N4CCN(C)CC4)[C@@H]3C2)cc1` | 1% |
| `Cc1cnn(C2CN(Cc3noc(-c4ccccc4)n3)C2)c1` | 21.92% |
| `CC1CN(CC(=O)Nc2nccs2)CCN1Cc1nccn1C` (stereo unspecified) | 22.02% |
| `Cc1cc(C)c(C(=O)N2CCOCC2c2c(C)n[nH]c2C)o1` (stereo unspecified) | 2.778% |
| `COCC(=O)N1CCCN(Cc2cc(C(C)C)no2)CC1` | 3.297% |
| `COc1ccc(S(=O)(=O)N2CCOC[C@H](Oc3cnccn3)C2)cc1` | 18.92% |
| `O=C(O)c1cnc(N2CCC(O)CC2)nc1COc1ccc(F)cc1` | 14.61% |
| `CNC(=O)c1ccc(CN(C)c2ccc(C(F)(F)F)cn2)cc1` | 0% |
| `Cc1nn(C)c2cnn(Cc3ccc(C(=O)N4CCCCC4)o3)c12` | 22.12% |
| `CN1CCN(C[C@@H]2CN(C(=O)c3ccccc3C#N)C[C@@H]2CO)CC1` | 9.524% |
| `Cn1cc(NS(=O)(=O)c2ccc3c(c2)CCCC3)ccc1=O` | 41.82% |
| `CSc1ccc(CNCCS(=O)(=O)N2CCOCC2)cc1` | 11.29% |
| `CN1CCCN(c2nc3c(cnn3C(C)(C)C)c(=O)[nH]2)CC1` | -5.479% |
| `Cc1cccc(CN2C[C@@H]3OCCN(C)[C@@H]3C2)n1` | 19.3% |
| `O=C(Cn1cnnn1)NCC1(O)CCCc2ccccc21` (stereo unspecified) | 17.02% |
| `CC(C)c1cc(C(=O)N2CCC3(CC2)c2ccccc2[C@@H](N)[C@@H]3O)cs1` | 11.32% |
| `O=C(COc1cccc(Cl)c1)N1CCOCC1c1ncon1` (stereo unspecified) | -2.632% |
| `CO[C@@H]1CCN(Cc2cccs2)[C@H]1Cc1ccncc1` | 14.71% |
| `O=C1CO[C@@H]2CN(S(=O)(=O)c3ccccc3F)C[C@H]2N1` | 5.769% |
| `O=C(Nc1ccccc1OCCc1ccccn1)N1CCOCC(O)C1` (stereo unspecified) | 15.66% |
| `Cc1cc2ncn(C[C@]3(O)CCCN4CCCC[C@@H]43)c2cc1C` | 2.797% |
| `O=C(C1CC1)N1CCCCCC1C1CCN(c2ncccn2)CC1` (stereo unspecified) | 17.05% |
| `Cc1nn(C)c(N2CCOCC2)c1CNC(C)c1cccnc1` (stereo unspecified) | 20.19% |
| `Cc1nn(C)c2c(=O)n(CC(=O)NCc3ccccn3)ccc12` | 14.13% |
| `Cn1ccc(NC(=O)CN2C[C@H]3CC[C@@H]2CN(Cc2ccccn2)C3)n1` | 0% |
| `Cc1cc(CN2CCN(C(=O)Cc3ccccc3F)CC2)on1` | 18.37% |
| `Cc1cccc(C)c1OC1CN(Cc2cnc(N3CCCC3)nc2)C1` | 16.13% |
| `Cc1nc(C)n(C2CCCN(C(=O)c3ccc4nccn4c3)C2)n1` (stereo unspecified) | 9.174% |
| `Cc1nc2ccc(-n3ncnc3[C@@H]3CCCN3S(C)(=O)=O)cc2s1` | 27.4% |
| `CN(CC(=O)N1CCC(Oc2ccc(C(F)(F)F)cn2)CC1)S(C)(=O)=O` | 10.96% |
| `CCC(CC)(CN)NC(C)c1ccccc1` (stereo unspecified) | -6.579% |
| `COc1cccc(OC)c1CNC(Cc1ccsc1)c1ccc(C)cn1` (stereo unspecified) | 28.17% |
| `CS(=O)(=O)NCC1(c2ccccc2Br)CC1` | 17.78% |
| `c1ncn(CCNC2CCCN(Cc3noc(C4CC4)n3)C2)n1` (stereo unspecified) | 18.75% |
| `Cc1noc(C)c1CNCC1CCN(CC(O)c2ccccc2)CC1` (stereo unspecified) | 16.22% |
| `CC(C)c1nnc(NCCS(C)(=O)=O)s1` | 11.86% |
| `Cc1cc(CS(=O)(=O)NC2CCCc3ccccc32)on1` (stereo unspecified) | 15.49% |
| `CCn1cc(-c2nn3c(C(F)(F)F)nnc3s2)c(C)n1` | -5.747% |
| `Cc1csc(N2CCN(C(=O)NCCNc3ncccn3)CC2)n1` | 7.895% |
| `CSc1nc2ncc3c(=O)n(CCN4CCCCC4)ccc3n2n1` | 8.696% |
| `O=C(CCc1ccccc1Br)N1CC(S(=O)(=O)C2CCCCC2)C1` | 3.478% |
| `Fc1cccc(Cl)c1Cn1ncnc1CSCCN1CCCC1` | 22.95% |
| `O=C(c1ccno1)N1CCOC[C@H](Oc2ccccc2)C1` | 22.97% |
| `Cc1noc(-c2ccc(Oc3cccc(CN4CCCC4)c3F)nc2)n1` | -3.279% |
| `Cc1nc(CN2CC3(CCN(c4ncccn4)C3)CC2=O)cs1` (stereo unspecified) | 17.95% |
| `Cc1[nH]ccc1C(=O)N1CCC2(CC1)c1nc[nH]c1CCN2CC(C)C` | 32.26% |
| `CC1CN(C)CCN1C(=O)COc1cccc(Oc2ccccn2)c1` (stereo unspecified) | -36.96% |
| `Cc1noc(C)c1CS(=O)(=O)CC(=O)NCCc1cccs1` | 11.11% |
| `O=C(C1CCC1)N1CC[C@H](O)[C@@H]1Cc1cccnc1` | 4.545% |
| `Cc1ccc(NCc2nc3n(n2)CCCCC3)c(C)c1` | 20% |
| `CC(=O)c1cc(CN2CCCC23CCN(c2ccccn2)CC3)cs1` | 31.17% |
| `O=C(NCc1cccs1)NCC(O)(c1cccs1)C1CC1` (stereo unspecified) | 5.217% |
| `CCOCCC(=O)N1CCCC(CO)(CC2CC2)C1` (stereo unspecified) | 14.29% |
| `CCc1cnc(N2C[C@@H]3[C@@H](C(=O)NCC(C)C)CCS(=O)(=O)[C@@H]3C2)nc1` | 19.3% |
| `Cc1nccn1C1CCCN(C(=O)CCCNc2ncccn2)C1` (stereo unspecified) | 12.28% |
| `Cc1ccc(C(=O)NC2CCN(S(C)(=O)=O)CC2)c(=O)[nH]1` | 12.94% |
| `CC(C)n1nc2c(cc1=O)CN(Cc1ccc(-n3cccn3)cc1)CC2` | 17.17% |
| `O=C(Cn1ccc2sccc2c1=O)NC1CCCCC1` | 9.783% |
| `CCc1nc2c(N3CCC4(CC3)CNC(=O)C4)ncnc2o1` | 25.37% |
| `CN(C)c1ccccc1CN1CCC(N2CCCC2=O)CC1` | 9.91% |
| `Cc1cnc2n(c1=O)CC(C(=O)Nc1ccon1)CS2` (stereo unspecified) | 12.82% |
| `COCC(=O)N1CCC2(CCC2N(C)Cc2ccco2)CC1` (stereo unspecified) | 15.53% |
| `Cc1nn(C2CCS(=O)(=O)C2)c(C)c1CC(=O)NCc1ccccc1Cl` (stereo unspecified) | 21.51% |
| `Cn1c2ncccc2c(=O)n1CC(=O)Nc1ccc(F)c(F)c1` | 8.163% |
| `Cc1nnc(N2CC[C@H](OCC3CC3)[C@@H](Cc3ccccc3)C2)s1` | 26.42% |
| `Cc1ccccc1C(NC(=O)NCC1(O)CCC1)C1CC1` (stereo unspecified) | 9.91% |
| `CN1CCCCC1(C)C(=O)N1CCC(c2ccccn2)CC1` (stereo unspecified) | -22.38% |
| `COc1ccc(C(=O)NCCN2CCC(c3cccs3)CC2)cc1OC` | 17.98% |
| `O=c1[nH]c(=O)n(CC(O)c2ccc(F)cc2F)cc1Cl` (stereo unspecified) | 16.44% |
| `Cn1ccc(C(=O)NCc2ccc(Cn3ccnc3)cc2)cc1=O` | 17.14% |
| `Cn1cc2c(n1)C(COCC1CC1)CN(Cc1ccccn1)C2` (stereo unspecified) | 12.03% |
| `CC(C)C(=O)N1CC[C@H]2N(C)CC[C@@]2(C(=O)N2CCOCC2)CC1` | 9.615% |
| `c1cnnc(N2CCCC2CNCc2csc(-c3ccco3)n2)c1` (stereo unspecified) | 39.29% |
| `COc1cccc(OCC2CCCN(C(=O)c3cnn(C)c3)C2)c1` (stereo unspecified) | 12.8% |
| `O=C(CN1CCC(c2cccc(F)c2)C1)NCc1ccco1` (stereo unspecified) | 39.2% |
| `CC(C(=O)NCCCN1CCOCC1)n1cncn1` (stereo unspecified) | 16.67% |
| `CCc1cnc(N2CC[C@H]3[C@H]2CC(=O)N3c2cccnc2)nc1` | 31.43% |
| `c1cc(CN2CCCCC2)cc(NCc2cc[nH]n2)c1` | 15.79% |
| `CC1(C(=O)NCCCOc2ccccc2F)CC(=O)N2C=CC=CC2=N1` (stereo unspecified) | 10.74% |
| `CCOc1cccc2c1OCC(C(=O)NS(=O)(=O)c1ccc(Cl)s1)=C2` | -8.772% |
| `COc1cccc(C(=O)N2C[C@H]3CC[C@@H]2CN(Cc2cscn2)C3)c1` | 23.38% |
| `Cc1cc(C(=O)N2CCn3cc(CN4CCOCC4)nc3C2)no1` | 14% |
| `Cn1ccc(C2CCCCCN2C(=O)c2cccnc2)n1` (stereo unspecified) | 15.6% |
| `O=C(O)[C@@H]1CN(C(=O)c2ccc(O)cc2)C[C@H]1c1cccc(F)c1` | 11.7% |
| `CS(=O)(=O)NCCC(=O)N1CCCC1c1noc(C2CC2)n1` (stereo unspecified) | 1.613% |